Reference: publication doi:10.1101/2020.11.13.381483
Where a chain is given by its changes, count along the chain named. Numbers in names are those of the source. No constants are given. Whether binding was seen depends on the method and setting. For part of these data: Binding seen in cells or lysates may run through a third protein. Some results given as binding are weak or reduced against the parent protein; the word gives no strength. Tags and fused reporters may be left off the sequences shown.

Assays:
[1] = target: T1, Ulp2, endogenous, C-terminally tagged with 9PK (S. cerevisiae) (UniProt P40537); assay: co-IP
T1 sequence: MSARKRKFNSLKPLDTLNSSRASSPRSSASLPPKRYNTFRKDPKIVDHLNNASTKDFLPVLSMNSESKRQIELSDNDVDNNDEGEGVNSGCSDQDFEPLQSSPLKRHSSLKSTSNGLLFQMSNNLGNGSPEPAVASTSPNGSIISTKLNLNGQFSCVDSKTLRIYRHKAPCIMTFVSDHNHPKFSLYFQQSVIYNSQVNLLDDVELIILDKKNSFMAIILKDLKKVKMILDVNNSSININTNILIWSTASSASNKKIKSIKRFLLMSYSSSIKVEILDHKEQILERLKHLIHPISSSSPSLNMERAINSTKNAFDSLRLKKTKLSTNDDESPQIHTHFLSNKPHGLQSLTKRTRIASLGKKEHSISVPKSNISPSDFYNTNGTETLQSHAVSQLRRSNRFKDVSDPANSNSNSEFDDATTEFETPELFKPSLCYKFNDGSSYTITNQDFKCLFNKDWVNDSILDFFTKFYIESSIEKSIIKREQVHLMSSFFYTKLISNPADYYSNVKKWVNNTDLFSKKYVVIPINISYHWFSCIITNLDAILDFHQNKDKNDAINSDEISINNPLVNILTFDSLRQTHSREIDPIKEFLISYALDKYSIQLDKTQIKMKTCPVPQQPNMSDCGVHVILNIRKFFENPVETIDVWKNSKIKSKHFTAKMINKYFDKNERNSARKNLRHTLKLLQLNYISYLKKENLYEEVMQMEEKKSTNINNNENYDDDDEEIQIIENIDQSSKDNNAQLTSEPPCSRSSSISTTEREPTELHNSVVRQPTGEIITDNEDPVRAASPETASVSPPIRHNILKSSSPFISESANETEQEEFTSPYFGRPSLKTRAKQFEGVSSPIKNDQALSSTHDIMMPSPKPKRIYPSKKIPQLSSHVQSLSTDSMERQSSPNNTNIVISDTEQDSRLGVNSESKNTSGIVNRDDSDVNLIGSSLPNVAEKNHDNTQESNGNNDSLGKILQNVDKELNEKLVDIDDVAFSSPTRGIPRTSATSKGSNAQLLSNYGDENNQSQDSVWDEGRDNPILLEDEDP

[2] = target: T2, Pds5, endogenous, C-terminally tagged with 13Myc (S. cerevisiae) (UniProt Q04264); assay: co-IP
T2 sequence: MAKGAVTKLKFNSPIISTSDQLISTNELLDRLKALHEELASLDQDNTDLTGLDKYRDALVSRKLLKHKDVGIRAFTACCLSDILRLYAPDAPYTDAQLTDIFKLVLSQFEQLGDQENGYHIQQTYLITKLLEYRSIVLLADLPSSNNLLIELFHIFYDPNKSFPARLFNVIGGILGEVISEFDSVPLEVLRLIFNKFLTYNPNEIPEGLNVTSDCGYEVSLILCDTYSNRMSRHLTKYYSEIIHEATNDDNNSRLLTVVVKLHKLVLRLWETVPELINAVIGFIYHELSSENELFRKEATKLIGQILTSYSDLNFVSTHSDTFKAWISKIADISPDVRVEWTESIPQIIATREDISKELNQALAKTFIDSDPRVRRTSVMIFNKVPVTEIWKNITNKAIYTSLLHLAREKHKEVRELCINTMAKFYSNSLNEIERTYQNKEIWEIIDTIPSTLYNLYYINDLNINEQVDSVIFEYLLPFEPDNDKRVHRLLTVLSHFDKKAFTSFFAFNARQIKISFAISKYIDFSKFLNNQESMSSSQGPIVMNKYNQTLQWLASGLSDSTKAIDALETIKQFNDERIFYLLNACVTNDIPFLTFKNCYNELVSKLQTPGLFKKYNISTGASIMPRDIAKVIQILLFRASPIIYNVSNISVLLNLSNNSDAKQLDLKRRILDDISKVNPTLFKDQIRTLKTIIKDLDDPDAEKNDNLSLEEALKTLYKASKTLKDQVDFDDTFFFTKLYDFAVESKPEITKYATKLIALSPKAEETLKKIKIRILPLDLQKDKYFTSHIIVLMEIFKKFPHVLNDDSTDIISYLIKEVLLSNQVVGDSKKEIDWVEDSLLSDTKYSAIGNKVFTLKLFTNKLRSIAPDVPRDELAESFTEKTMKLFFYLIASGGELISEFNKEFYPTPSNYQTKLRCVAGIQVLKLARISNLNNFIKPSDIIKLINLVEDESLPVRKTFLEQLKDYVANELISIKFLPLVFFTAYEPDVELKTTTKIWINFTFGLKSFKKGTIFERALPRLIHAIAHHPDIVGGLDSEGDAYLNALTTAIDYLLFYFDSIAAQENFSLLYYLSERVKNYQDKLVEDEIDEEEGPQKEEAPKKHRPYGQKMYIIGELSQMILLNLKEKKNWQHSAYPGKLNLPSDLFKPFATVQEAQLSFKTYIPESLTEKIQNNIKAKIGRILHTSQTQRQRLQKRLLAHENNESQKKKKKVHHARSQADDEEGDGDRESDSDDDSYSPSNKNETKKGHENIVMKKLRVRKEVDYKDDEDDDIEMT

[3] = target: T3, Pds5 C-terminal fragment (aa 702-1277), Gal4 DNA-binding domain fusion (S. cerevisiae) (UniProt Q04264); assay: two-hybrid
T3 sequence: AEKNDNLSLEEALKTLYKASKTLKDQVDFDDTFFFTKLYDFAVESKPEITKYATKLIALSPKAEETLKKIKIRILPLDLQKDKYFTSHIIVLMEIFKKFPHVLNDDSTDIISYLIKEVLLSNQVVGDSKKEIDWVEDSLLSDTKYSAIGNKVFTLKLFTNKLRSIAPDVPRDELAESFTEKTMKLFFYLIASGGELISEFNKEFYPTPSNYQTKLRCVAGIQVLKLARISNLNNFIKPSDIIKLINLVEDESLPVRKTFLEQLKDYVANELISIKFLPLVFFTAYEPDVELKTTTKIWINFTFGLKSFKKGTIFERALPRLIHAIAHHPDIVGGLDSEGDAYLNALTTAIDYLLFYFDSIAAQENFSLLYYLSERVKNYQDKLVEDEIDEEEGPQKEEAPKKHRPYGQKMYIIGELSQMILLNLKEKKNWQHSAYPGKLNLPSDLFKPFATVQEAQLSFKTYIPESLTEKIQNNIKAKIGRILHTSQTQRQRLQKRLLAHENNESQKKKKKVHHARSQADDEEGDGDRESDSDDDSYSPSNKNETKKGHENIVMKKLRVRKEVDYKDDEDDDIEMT

B1: Pds5, endogenous, C-terminally tagged with 13Myc (protein, UniProt Q04264 1-1277)
chain: T2 sequence
[1]
  binding: binds

B2: Ulp2, endogenous, C-terminally tagged with 9PK (enzyme, UniProt P40537 1-1034)
chain: T1 sequence
[2]
  binding: binds

B3: catalytically dead Ulp2 (Ulp2-C624S), Gal4 activation domain fusion (enzyme, UniProt P40537 1-1034)
chain: T1 sequence with C624S
[3]
  binding: binds weakly
